Reference: patent US20260022352A1, “COMPOSITIONS AND METHODS FOR PURIFYING […]” (North Carolina State University, priority 2023, published 2026)
Where “and” joins values, the source holds several entries; their conditions need not be identical. Equal values may be shown once.

tested on: HEK293 host cell proteins; details: not given

Going from AFIHEAWS to EHFEHWSE, the “HCP LRV” value rises from 1.42 to 1.88.

First: ESFWFNNE
Second: FGKSAAAA
The “HCP LRV” value of the first is higher: 1.98 for the first, 0.54 for the second.

Compared with FWIAIEAI, FWSAFINE is higher in “HCP LRV” value: 1.81 for the first, 1.98 for the second.

Going from GASFFISW to GNSNAAHF, the “HCP LRV” value falls from 1.59 to 0.71.

Going from GSWGGHHW to HAWENNFG, the “HCP LRV” value falls from 1.51 to 1.12.

Going from IWEFKNHE to KAHEHIFW, the “HCP LRV” value falls from 1.31 to 0.56.

Compared with LKIWEWEI, NAAFIWNH is higher in “HCP LRV” value: 0.58 for the first, 2.07 for the second.

Compared with NKGHSHEE, NNWHEWHI is higher in “HCP LRV” value: 0.79 for the first, 1.48 for the second.

First: NWFWSFNE
Second: SESIIAWW
The “HCP LRV” value of the first is higher: 2.05 for the first, 1.81 for the second.

First: SHFAWASE
Second: SHIKNSAN
The “HCP LRV” value of the first is higher: 0.91 for the first, 0.78 for the second.

First: SWFHWNGW
Second: WESIIFAA
The “HCP LRV” value of the first is lower: 0.52 for the first, 1.79 for the second.

Compared with WFIIEESG, WFWHAAIF is higher in “HCP LRV” value: 1.83 for the first, 2.08 for the second.

First: WHISHAAN
Second: WSSISEGG
The “HCP LRV” value of the first is lower: 1.52 for the first, 2.31 for the second.

Substance “C-cyclo[GSRAFVGDAD]C (CGSRAFVGDADC; cyclised)” has an HCP fold reduction of 871 fold.

“C-cyclo[GSRAFVGDAD]C (CGSRAFVGDADC; cyclised)” was tested, and the “residual HCP titer” value was roughly 0.34 g/mL.

FEKISNAE was tested, and the “HCP LRV” value was 1.61 and 1.62 and 1.82 and 1.81 and 2.01.
GEFENINW was tested, and the “HCP LRV” value was 1.62 and 1.73 and 2.71 and 2.39 and 2.37.
For SIEINSSE, the “HCP LRV” value was 1.69 and 2.49.
SKSAAEHE was tested, and the “HCP LRV” value was 1.24 and 1.75.
With SNEIEIAN the “HCP LRV” value was 1.84 and 2.25.

same assay, conditions: pH 7.4

First: C-cyclo[GSRAFVGDAD]C-GSG
Second: EHFEHWSE
The “HCP LRV” value of the first is higher: 2.94 for the first, 2.32 for the second.

Compared with FEKISNAE, SFVRIGLSDGSG is lower in “HCP LRV” value: 2.39 for the first, 2.02 for the second.

First: SKSAAEHE
Second: SRAFVGDADRDGSG
The “HCP LRV” value of the first is lower: 1.81 for the first, 2.20 for the second.

For SRQFVCGDSDRDGSG, the “HCP LRV” value was 2.42.

same assay, conditions: pH 8

Going from FEKISNAE to GEFENINW, the “HCP LRV” value falls from 2.39 to 1.92.
